The results in this text go back to PMC2904376.

Chains of the proteins cited; added tags and fusions are not shown. Residues count along the entry.
low-density lipoprotein receptor-related protein-1 (LRP-1) α-chain (human (endogenous in FTC133)) (Q07954, residues 20-3943): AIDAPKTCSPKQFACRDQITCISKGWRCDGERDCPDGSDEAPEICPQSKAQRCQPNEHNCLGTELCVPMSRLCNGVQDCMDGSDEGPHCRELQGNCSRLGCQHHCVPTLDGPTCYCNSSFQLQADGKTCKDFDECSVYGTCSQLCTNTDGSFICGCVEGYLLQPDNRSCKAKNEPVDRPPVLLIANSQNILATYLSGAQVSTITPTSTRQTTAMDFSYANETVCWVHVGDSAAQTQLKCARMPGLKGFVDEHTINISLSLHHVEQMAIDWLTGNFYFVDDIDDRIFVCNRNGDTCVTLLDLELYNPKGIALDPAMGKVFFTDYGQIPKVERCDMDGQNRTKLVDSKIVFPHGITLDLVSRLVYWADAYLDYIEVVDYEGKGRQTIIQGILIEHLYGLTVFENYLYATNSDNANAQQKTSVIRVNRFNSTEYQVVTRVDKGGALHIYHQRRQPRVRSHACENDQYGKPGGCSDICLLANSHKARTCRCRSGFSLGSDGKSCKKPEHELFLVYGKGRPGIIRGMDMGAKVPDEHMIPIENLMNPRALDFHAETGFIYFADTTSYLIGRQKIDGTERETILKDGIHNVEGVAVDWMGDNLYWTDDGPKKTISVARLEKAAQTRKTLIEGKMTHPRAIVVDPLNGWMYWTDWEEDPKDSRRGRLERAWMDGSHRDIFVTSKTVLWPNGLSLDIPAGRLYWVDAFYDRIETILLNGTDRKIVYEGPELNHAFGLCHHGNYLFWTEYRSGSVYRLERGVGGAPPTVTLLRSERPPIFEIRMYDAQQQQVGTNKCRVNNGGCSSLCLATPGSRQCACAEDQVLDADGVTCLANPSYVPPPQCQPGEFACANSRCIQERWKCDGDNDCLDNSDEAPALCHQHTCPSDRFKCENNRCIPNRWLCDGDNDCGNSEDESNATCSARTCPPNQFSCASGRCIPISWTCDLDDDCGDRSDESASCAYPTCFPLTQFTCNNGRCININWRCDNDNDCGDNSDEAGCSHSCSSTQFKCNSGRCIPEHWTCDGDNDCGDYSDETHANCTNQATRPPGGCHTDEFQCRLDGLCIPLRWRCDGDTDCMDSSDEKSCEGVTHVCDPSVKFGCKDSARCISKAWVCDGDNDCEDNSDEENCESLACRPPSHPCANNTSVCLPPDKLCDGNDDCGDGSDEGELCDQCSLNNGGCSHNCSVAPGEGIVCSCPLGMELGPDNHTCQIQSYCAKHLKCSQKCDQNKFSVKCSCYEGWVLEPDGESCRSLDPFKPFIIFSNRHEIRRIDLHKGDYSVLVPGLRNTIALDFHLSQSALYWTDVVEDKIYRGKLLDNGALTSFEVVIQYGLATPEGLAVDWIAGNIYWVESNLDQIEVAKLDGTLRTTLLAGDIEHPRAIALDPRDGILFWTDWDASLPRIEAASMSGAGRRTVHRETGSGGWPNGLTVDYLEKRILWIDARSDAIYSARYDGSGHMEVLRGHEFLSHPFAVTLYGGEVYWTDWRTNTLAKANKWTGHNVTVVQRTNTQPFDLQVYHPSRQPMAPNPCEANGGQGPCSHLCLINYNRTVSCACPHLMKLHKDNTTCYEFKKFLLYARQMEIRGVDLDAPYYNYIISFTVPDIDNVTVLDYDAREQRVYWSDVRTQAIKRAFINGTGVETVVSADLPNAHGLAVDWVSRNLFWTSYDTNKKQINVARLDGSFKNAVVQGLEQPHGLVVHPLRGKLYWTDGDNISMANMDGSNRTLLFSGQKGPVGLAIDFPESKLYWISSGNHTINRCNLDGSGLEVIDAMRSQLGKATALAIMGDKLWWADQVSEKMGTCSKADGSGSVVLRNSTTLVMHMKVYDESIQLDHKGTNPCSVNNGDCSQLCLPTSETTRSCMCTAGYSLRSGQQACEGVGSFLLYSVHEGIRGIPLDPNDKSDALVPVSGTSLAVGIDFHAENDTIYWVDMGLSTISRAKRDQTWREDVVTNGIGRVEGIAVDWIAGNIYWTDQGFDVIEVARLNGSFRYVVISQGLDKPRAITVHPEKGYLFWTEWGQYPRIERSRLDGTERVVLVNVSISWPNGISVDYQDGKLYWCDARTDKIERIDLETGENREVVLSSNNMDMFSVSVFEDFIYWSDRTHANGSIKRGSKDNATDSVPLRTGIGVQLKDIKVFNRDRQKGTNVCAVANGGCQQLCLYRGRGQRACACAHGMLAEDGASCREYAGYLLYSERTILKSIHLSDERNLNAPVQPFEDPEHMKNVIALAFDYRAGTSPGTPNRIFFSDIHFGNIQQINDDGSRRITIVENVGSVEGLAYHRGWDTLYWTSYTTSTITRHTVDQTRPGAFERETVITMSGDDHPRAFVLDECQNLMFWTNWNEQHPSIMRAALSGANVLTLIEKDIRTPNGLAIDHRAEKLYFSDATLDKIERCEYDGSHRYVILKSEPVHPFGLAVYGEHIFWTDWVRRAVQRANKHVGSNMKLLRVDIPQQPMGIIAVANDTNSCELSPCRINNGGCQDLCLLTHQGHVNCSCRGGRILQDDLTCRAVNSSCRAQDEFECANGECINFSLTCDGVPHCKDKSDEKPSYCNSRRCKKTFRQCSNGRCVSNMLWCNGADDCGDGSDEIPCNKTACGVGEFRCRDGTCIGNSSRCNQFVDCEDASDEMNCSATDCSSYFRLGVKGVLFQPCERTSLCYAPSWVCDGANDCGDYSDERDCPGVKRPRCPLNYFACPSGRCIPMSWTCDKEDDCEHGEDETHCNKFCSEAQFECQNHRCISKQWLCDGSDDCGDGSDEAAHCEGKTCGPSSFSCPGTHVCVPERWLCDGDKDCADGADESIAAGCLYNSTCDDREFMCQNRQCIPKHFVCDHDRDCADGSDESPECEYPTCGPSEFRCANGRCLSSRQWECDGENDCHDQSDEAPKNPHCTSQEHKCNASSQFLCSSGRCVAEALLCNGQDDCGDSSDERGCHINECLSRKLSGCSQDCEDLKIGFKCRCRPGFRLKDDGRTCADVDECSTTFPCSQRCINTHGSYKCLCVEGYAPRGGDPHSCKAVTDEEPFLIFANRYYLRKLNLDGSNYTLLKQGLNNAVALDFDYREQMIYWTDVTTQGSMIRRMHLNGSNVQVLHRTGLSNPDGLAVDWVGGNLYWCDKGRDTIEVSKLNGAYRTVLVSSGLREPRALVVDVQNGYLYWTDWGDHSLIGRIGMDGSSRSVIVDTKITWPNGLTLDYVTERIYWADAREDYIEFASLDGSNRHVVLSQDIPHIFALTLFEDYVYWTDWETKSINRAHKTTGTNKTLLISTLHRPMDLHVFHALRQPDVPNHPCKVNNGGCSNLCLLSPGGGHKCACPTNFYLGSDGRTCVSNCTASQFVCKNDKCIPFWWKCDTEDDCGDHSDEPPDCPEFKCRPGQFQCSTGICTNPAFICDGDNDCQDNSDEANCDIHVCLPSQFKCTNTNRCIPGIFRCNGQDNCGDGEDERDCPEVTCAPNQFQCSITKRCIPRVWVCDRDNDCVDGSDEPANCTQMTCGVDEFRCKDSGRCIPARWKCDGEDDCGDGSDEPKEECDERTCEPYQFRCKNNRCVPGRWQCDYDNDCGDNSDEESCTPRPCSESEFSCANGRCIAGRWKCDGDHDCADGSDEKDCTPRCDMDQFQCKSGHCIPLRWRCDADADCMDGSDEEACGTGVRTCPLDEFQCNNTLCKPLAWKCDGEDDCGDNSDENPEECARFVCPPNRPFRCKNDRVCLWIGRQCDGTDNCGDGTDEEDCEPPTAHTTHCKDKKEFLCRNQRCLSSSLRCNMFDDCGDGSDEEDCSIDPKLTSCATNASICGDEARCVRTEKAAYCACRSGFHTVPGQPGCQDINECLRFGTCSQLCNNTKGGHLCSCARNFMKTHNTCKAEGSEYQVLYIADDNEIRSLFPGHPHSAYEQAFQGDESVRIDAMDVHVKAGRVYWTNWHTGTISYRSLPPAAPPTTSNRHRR
low-density lipoprotein receptor-related protein-1 (LRP-1) β-chain (human (endogenous in FTC133)) (Q07954, residues 3944-4544): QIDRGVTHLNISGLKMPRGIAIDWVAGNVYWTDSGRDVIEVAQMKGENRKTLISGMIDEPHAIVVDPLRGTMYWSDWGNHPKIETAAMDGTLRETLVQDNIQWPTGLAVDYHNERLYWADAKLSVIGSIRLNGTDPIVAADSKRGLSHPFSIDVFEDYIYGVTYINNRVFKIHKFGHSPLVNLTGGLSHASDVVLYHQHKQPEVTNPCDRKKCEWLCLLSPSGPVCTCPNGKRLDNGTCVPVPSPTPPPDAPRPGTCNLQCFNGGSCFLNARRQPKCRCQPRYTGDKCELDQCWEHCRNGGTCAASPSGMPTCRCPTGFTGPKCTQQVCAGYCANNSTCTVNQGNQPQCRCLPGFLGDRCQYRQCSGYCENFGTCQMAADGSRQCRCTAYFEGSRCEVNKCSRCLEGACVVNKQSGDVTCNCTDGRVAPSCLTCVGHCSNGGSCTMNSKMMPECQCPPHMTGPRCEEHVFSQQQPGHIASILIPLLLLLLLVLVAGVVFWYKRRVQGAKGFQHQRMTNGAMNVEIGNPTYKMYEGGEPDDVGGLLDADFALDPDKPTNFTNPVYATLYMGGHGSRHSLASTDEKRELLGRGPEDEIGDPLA
UniProt P49023: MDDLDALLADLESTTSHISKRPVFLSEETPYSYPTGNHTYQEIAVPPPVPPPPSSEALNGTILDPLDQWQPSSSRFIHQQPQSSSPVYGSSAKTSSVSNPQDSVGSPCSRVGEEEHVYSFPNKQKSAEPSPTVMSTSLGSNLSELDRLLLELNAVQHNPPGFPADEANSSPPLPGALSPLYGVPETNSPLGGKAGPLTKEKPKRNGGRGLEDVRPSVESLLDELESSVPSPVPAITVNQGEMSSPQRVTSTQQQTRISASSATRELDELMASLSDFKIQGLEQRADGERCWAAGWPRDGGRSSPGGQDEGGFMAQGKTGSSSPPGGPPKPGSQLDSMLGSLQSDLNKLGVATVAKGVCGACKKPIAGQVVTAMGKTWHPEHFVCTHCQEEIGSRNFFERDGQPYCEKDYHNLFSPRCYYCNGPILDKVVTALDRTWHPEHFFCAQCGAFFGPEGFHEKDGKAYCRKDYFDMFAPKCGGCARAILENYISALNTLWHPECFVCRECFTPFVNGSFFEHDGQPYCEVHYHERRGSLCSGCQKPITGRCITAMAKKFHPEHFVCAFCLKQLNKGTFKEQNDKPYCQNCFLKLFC

In test [1] the target is low-density lipoprotein receptor-related protein-1 (LRP-1) α-chain (human (endogenous in FTC133)) (UniProt Q07954). Kind of test: co-IP; LRP-1-containing complexes precipitated with anti-LRP-1 α-chain antibody (8G1) and protein G-Sepharose from 500 µg FTC133 cell extract (10 mM Tris-HCl pH 7.4, 150 mM NaCl, 5 mM EDTA, 0.1% Triton X-100), 4°C; immunoblot; nonspecific IgGs as negative control. In general terms: In western blotting, separated proteins are transferred to a membrane and probed.

The target in test [2] is low-density lipoprotein receptor-related protein-1 (LRP-1) β-chain (human (endogenous in FTC133)) (UniProt Q07954). Described as above.

No constants are given. Whether binding was seen depends on the method and setting. Binding seen in cells or lysates may run through a third protein. Some entries that bind do so weakly or less than the wild type.

For “low-density lipoprotein receptor-related protein-1 (LRP-1) β-chain (from UniProt Q07954 3944-4544)”, the binding result in test [1] is listed as “binds”.
For the substance paxillin (from UniProt P49023 1-591), in test [2], the binding result is listed as “binds”.
